Data as given in PubChem BioAssay AID1259424 (University of Nebraska Medical Center, 2018)
This is one part, drawn at random, of about 14,000 reagents. 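Higher correlation or smaller distance means closer resemblance to KSR1 loss; control wells, including KSR1 knockdowns, recur on many plates.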 Further read-outs or replicates are left out here. No sequences are given here. The record does not give: the time to read-out.

Test: 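Seek colon cancer survival genes behaving like KSR1, using a six-gene signature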 (primary screen)
Cell system: human HCT116 colon cancer cells
Knock-down reagent: siRNA pool against human genes, 50 nM
Detection: 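Six signature mRNAs by branched-DNA multiplex assay, scaled to two housekeeping genes and non-targeting median, log2; matched to mean KSR1 knockdown profile by Pearson correlation and euclidean distance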
Scale: mean correlation with KSR1 profile and KSR1 correlation: higher = expression change more like KSR1 knockdown; mean distance from KSR1 profile: higher = expression change less like KSR1 knockdown

gene symbol	mean correlation with KSR1 profile	mean distance from KSR1 profile	KSR1 correlation, replicate 1	KSR1 correlation, replicate 2
WDFY1	0.205	1.42	0.0947	0.341
CLIC5	0.411	1.35	0.432	0.274
PSMD1	-0.138	4.31	0.0714	-0.138
CDCA7L	-0.682	2.59	-0.538	-0.737
SRP54	-0.396	2.66	-0.189	-0.51
FRZB	0.359	1.56	0.462	0.29
GSDMD	0.153	1.66	0.0965	0.00299
EXOSC8	0.0846	2.32	-0.343	0.163
HSFY2	0.142	1.43	0.254	-0.158
PSMD2	-0.826	2.54	-0.61	-0.957
CUBN	-0.142	1.61	0.176	-0.454
EFEMP1	0.0216	1.76	0.355	-0.116
TDRD3	0.68	1.9	0.523	0.646
AIF1L	0.561	2.71	0.487	0.552
SPMAP2	-0.72	2.39	-0.64	-0.706

Laid out differently: 4 of the entries above
gene symbol,mean correlation with KSR1 profile,mean distance from KSR1 profile,"KSR1 correlation, replicate 1","KSR1 correlation, replicate 2"
HSFY2,0.142,1.43,0.254,-0.158
PSMD2,-0.826,2.54,-0.61,-0.957
CUBN,-0.142,1.61,0.176,-0.454
EFEMP1,0.0216,1.76,0.355,-0.116

Next results:
gene symbol	mean correlation with KSR1 profile	mean distance from KSR1 profile	KSR1 correlation, replicate 1	KSR1 correlation, replicate 2
DOCK7	0.421	2.5	0.427	0.342
STAC	0.196	1.71	0.0679	0.331
GABRD	0.515	1.72	0.648	0.421
SLC25A36	-0.618	2.65	-0.553	-0.618
OPN4	0.111	2.16	0.248	0.00213
PSMG2	-0.227	1.47	-0.246	-0.131
SCD	-0.0614	4.37	-0.102	-0.00416
FGF6	-0.452	1.92	-0.478	-0.407
PBDC1	-0.26	1.43	-0.368	-0.304
CDH17	-0.419	1.36	-0.344	-0.493
SLC26A1	-0.197	2.36	0.051	-0.292
ARHGDIA	0.248	1.63	0.513	0.036
USP11	-0.507	2.15	-0.357	-0.651
TRA2B	-0.156	3.23	-0.19	-0.277
PCDHB10	0.728	1.96	0.692	0.818
RND1	0.643	0.79	0.789	0.639
TSSK4	0.616	1.83	0.771	0.241
LPCAT1	-0.0407	2.32	-0.147	-0.166
PIGH	-0.421	3.02	-0.65	-0.484
